Some of the results follow.

Sequences of proteins named here, by UniProt entry; tags and fusion partners are left off. A change or cut given only in a name is not applied to a line headed by its entry.
UniProt Q14393: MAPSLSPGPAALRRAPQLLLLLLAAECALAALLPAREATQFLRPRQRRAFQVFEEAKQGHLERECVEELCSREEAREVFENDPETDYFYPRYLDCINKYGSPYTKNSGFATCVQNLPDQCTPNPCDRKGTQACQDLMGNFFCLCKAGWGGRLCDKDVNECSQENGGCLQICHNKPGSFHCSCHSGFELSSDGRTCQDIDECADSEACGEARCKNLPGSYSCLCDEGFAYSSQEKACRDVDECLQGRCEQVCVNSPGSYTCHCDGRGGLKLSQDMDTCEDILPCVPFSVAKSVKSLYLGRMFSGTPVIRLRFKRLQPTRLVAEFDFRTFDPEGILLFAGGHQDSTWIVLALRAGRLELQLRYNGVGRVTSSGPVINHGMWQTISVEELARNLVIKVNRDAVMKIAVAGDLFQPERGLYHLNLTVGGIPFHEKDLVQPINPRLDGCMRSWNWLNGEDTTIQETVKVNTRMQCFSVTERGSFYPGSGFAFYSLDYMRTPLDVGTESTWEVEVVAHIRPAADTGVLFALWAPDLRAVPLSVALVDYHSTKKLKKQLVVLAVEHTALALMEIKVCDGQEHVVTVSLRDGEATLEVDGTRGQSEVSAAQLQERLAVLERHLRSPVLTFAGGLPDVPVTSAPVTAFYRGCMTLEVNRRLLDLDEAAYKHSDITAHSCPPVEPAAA
UniProt Q495W5: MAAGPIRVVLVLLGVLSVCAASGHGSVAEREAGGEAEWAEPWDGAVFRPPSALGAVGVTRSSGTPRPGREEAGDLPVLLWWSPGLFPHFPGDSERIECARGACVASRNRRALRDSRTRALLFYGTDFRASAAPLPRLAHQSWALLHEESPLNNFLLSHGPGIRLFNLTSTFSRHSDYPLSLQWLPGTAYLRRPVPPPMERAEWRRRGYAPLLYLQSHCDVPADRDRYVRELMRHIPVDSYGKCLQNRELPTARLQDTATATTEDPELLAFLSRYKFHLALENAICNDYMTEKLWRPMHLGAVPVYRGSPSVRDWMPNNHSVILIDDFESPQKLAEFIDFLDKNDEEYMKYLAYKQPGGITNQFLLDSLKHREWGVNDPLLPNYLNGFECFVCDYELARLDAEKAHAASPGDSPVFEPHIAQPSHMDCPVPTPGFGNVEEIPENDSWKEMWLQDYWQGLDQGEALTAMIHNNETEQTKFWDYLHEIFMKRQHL
UniProt Q9BYC5: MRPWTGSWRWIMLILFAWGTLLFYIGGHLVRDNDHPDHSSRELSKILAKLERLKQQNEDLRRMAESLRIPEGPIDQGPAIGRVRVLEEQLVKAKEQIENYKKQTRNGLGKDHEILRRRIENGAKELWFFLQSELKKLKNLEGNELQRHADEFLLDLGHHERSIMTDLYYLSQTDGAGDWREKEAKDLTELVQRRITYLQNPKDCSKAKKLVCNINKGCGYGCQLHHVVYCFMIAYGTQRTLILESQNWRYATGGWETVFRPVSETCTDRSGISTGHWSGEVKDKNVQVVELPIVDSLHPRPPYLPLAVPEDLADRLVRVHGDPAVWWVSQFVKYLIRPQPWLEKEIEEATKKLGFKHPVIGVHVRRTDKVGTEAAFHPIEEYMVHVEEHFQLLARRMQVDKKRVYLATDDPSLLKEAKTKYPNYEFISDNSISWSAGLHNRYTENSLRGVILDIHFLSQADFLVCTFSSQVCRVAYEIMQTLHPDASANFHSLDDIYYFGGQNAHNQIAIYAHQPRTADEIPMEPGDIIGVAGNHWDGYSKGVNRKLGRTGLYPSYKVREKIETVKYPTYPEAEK
UniProt Q8TAK5: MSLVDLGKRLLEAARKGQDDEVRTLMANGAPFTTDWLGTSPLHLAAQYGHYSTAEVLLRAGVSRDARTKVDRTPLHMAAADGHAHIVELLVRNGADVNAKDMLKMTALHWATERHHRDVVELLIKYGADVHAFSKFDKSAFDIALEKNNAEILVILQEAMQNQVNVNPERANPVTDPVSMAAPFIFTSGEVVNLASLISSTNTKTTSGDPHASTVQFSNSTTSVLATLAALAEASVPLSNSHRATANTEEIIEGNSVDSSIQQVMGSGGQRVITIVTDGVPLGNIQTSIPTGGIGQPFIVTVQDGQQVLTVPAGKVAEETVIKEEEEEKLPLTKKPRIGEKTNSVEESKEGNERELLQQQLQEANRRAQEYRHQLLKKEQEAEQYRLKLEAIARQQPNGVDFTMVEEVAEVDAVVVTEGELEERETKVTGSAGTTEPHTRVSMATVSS
UniProt Q8TET4: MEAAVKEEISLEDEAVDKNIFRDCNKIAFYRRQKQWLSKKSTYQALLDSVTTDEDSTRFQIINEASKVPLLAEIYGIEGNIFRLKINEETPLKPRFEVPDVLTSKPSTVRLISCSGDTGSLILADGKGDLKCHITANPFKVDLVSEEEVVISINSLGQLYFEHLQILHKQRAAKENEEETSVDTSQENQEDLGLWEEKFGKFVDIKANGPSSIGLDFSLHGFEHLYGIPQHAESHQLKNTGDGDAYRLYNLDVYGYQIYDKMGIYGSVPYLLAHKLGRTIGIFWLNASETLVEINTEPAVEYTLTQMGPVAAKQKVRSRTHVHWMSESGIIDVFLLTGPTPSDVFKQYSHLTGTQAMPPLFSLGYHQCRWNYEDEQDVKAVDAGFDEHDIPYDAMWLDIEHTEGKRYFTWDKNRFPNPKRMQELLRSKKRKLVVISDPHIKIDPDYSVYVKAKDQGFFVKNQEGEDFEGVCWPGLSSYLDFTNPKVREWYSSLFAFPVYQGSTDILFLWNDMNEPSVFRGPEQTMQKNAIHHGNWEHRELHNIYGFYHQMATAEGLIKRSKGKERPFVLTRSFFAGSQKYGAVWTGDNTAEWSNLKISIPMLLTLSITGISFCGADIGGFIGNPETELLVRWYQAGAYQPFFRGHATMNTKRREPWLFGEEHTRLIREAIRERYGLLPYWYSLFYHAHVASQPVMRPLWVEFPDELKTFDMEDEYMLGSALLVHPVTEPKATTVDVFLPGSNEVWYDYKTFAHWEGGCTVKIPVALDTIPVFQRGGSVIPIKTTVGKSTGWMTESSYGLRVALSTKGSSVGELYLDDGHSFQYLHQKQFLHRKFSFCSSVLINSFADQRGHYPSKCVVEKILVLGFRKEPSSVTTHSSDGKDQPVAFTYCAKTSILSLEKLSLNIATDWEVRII
UniProt Q9HCG7: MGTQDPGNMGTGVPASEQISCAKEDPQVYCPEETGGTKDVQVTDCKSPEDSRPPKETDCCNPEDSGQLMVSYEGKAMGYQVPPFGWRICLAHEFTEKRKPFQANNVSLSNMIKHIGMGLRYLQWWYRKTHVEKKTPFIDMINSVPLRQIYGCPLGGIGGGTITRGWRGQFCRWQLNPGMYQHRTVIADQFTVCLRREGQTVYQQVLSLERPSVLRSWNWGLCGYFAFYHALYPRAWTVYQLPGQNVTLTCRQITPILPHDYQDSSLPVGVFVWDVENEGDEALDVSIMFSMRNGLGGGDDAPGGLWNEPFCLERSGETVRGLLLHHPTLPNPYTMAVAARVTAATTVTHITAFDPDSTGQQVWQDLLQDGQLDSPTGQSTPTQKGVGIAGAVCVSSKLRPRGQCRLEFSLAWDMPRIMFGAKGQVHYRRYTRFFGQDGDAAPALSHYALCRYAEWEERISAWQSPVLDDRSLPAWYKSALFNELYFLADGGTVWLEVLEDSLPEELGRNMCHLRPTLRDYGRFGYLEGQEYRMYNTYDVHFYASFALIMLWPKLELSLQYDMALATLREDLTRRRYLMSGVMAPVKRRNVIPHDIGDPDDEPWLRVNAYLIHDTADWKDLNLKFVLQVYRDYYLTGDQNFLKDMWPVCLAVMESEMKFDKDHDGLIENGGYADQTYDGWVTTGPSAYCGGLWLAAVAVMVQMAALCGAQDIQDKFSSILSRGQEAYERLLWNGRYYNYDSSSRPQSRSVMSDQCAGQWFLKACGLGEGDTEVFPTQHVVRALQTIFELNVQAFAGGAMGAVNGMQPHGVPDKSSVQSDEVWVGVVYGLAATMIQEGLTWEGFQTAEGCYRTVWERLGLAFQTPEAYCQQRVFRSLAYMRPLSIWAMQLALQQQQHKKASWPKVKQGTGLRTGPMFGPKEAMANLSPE
UniProt Q9NZC3: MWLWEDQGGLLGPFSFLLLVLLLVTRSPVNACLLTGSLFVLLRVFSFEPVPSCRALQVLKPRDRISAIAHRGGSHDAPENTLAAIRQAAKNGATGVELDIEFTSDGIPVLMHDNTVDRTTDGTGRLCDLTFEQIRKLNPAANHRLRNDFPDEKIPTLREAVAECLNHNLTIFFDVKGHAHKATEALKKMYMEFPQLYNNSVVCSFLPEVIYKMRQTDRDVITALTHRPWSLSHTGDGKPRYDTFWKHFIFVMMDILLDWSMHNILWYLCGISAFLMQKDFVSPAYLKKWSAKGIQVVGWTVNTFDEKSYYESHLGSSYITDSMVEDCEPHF
UniProt P58012: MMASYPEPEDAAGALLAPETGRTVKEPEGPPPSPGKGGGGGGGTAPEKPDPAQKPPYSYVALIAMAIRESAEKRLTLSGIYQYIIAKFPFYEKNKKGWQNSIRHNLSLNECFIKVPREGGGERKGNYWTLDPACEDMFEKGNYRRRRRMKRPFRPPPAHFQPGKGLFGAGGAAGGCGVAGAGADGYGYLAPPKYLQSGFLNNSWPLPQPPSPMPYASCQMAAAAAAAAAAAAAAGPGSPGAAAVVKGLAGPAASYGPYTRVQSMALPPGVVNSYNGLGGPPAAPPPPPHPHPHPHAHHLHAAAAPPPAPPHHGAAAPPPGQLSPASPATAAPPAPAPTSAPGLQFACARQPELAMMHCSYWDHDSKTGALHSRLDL
UniProt P32456: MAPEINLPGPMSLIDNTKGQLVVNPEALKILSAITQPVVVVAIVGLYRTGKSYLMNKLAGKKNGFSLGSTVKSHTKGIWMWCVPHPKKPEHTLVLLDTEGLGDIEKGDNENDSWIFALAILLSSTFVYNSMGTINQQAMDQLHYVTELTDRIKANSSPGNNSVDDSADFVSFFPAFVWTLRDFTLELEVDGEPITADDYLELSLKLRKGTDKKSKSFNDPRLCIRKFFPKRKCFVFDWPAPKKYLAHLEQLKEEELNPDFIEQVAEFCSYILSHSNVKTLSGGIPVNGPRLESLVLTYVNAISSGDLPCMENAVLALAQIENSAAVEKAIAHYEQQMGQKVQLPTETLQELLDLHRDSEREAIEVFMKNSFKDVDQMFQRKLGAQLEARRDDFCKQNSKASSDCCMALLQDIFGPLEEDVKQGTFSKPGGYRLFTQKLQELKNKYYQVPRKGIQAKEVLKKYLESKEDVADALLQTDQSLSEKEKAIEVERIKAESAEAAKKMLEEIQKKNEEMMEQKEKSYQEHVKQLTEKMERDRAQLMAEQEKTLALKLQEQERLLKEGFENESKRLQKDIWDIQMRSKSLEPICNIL
UniProt P15976: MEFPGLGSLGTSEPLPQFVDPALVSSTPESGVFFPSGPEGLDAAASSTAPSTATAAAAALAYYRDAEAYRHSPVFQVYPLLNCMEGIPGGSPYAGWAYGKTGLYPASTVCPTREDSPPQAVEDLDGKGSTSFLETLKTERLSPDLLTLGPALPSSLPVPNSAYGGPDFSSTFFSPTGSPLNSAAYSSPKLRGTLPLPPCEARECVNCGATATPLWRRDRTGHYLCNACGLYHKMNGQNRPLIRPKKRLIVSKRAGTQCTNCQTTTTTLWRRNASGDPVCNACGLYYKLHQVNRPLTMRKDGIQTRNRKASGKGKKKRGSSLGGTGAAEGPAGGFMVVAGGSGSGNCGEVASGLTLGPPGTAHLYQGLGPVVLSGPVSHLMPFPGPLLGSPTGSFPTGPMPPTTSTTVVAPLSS
UniProt Q9H840: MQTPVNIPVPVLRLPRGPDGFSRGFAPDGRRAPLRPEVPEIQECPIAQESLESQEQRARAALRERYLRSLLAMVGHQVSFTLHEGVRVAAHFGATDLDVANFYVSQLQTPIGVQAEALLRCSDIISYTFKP
UniProt P24522: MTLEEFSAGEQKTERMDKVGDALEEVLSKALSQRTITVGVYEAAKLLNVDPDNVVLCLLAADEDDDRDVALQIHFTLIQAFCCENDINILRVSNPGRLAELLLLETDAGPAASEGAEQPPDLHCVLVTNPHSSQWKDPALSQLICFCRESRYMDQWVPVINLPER
UniProt Q9UM11, whole entry, looked up: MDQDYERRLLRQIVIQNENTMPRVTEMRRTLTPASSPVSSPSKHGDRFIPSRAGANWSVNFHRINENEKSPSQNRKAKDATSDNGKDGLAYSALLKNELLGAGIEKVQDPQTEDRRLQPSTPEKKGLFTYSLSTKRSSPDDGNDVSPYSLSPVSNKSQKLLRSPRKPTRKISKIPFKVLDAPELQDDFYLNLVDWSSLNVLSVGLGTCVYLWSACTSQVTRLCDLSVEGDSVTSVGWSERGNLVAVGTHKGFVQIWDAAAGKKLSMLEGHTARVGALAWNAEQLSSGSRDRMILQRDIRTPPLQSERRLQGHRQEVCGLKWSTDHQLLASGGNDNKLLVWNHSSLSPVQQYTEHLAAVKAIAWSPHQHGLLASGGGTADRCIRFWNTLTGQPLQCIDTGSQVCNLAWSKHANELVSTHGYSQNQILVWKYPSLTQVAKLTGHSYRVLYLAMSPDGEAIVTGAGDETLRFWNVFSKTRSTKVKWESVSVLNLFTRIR

Compound in the first assay: CC[C@@H]1C(=O)N(C)c2cnc(Nc3ccc(C(=O)NC4CCN(C)CC4)cc3OC)nc2N1C1CCCC1
As to the kind of experiment: log2 fold change, soluble protein after heating vs DMSO (PISA); higher = thermal stabilisation; K562 lysate, 10 uM; active = over 0.2 and 3.5 SD of the protein, either way, in both replicates (recomputed). The gist of the method:
(§1)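 K562 pellets were dounce-homogenised in PBS pH 7.4 containing 1 mM MgCl2, and the crude extract, at 1 mg/mL protein, was exposed to 10 μM compound for 30 min. Aliquots were heated for 3 min across 48°C-58°C, pooled, brought to 0.5% NP-40 at 4°C and spun at 21,000xg for 90 min, with the supernatant taken as soluble protein. TMTpro 16plex LC-MS/MS with equalised channel sums quantified that protein. Values are log-two fold changes in thermal stability relative to solvent controls, taken from duplicates.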
Turning to GAS6 isoform 1 (UniProt Q14393), the log2 fold change is inactive: -0.315.

As for GALNT3 (UniProt Q14435), the log2 fold change was inactive: 0.055.

With G0S2 (UniProt P27469), the log2 fold change was inactive: -0.199.

Consider FUT11 (UniProt Q495W5), for which the log2 fold change is inactive: 0.001.

Regarding FUT8 (UniProt Q9BYC5), the log2 fold change is inactive: 0.079.

On to GABPB2 (UniProt Q8TAK5), for which the log2 fold change is inactive: -0.177.

As to FUT4 (UniProt P22083), the log2 fold change was inactive: 0.03.

On to GATM (UniProt P50440), for which the log2 fold change is inactive: 0.351.

Regarding GANC (UniProt Q8TET4), the log2 fold change is inactive: -0.016.

Regarding GAB3 isoform 2 (UniProt Q8WWW8), the log2 fold change is inactive: -0.204.

For FPGS (UniProt Q05932), the log2 fold change is inactive: 0.05.

As to GBA2 (UniProt Q9HCG7), the log2 fold change was inactive: 0.099.

For the target GDE1 (UniProt Q9NZC3), the log2 fold change was inactive: 0.107.

As for GART (UniProt C9JZG2), the log2 fold change was inactive: -0.021.

As for FOXL2 (UniProt P58012), the log2 fold change was inactive: 0.01.

Turning to GBP2 (UniProt P32456), the log2 fold change was inactive: -0.007.

Compound in another assay: CC[C@@H]1C(=O)N(C)c2cnc(Nc3ccc(C(=O)N[C@H]4CC[C@H](N5CCN(CC6CC6)CC5)CC4)cc3OC)nc2N1C(C)C [volasertib]
Described as above. The gist of the method: as §1
For the target GAS6 isoform 1 (UniProt Q14393), the log2 fold change was inactive: -0.082.

For the target GFI1B (UniProt Q5VTD9), the log2 fold change was inactive: 0.124.

Turning to FUT11 (UniProt Q495W5), the log2 fold change was inactive: 0.17.

In the case of FUT8 (UniProt Q9BYC5), the log2 fold change is inactive: 0.12.

As to FSIP2 (UniProt Q5CZC0), the log2 fold change is inactive: -0.011.

Turning to GAPVD1 (UniProt Q14C86), the log2 fold change was inactive: -0.305.

Consider GCA (UniProt P28676), for which the log2 fold change was inactive: -0.048.

Take GARS1 (UniProt H7C443): the log2 fold change was inactive: 0.008.

GFOD1 (UniProt Q9NXC2): the log2 fold change was inactive: -0.015.

As for G3BP2 isoform 2 (UniProt Q9UN86), the log2 fold change was inactive: -0.097.

On to GANC (UniProt Q8TET4), for which the log2 fold change was inactive: -0.068.

Take FZD5 (UniProt Q13467): the log2 fold change was inactive: 0.003.

Turning to GATA1 (UniProt P15976), the log2 fold change is inactive: -0.028.

For GBA2 (UniProt Q9HCG7), the log2 fold change is inactive: -0.21.

For GDE1 (UniProt Q9NZC3), the log2 fold change was inactive: 0.092.

With GART (UniProt C9JZG2), the log2 fold change was inactive: 0.06.

For FOXL2 (UniProt P58012), the log2 fold change was inactive: 0.046.

Turning to GBP2 (UniProt P32456), the log2 fold change was inactive: -0.14.

Compound in the next assay: CCn1c(C(=O)N(C2CC2)C2CC2)cc2c3c(ncn3C)c(Nc3cc(C)n(C)n3)nc21
The description is as above. The procedure, abridged:
as §1
With GFI1B (UniProt Q5VTD9), the log2 fold change was inactive: -0.07.

On to FZD1 (UniProt Q9UP38), for which the log2 fold change was inactive: 0.081.

Turning to FUT11 (UniProt Q495W5), the log2 fold change is inactive: 0.022.

For the target FUT8 (UniProt Q9BYC5), the log2 fold change is inactive: 0.239.

Consider FSIP2 (UniProt Q5CZC0), for which the log2 fold change was inactive: -0.154.

With GABPB2 (UniProt Q8TAK5), the log2 fold change is inactive: 0.005.

For GEMIN7 (UniProt Q9H840), the log2 fold change was inactive: -0.092.

In the case of GFOD1 (UniProt Q9NXC2), the log2 fold change is inactive: 0.087.

With GANC (UniProt Q8TET4), the log2 fold change was inactive: 0.021.

For the target GAB3 isoform 2 (UniProt Q8WWW8), the log2 fold change is inactive: -0.242.

Turning to GADD45A (UniProt P24522), the log2 fold change is inactive: 0.208.

As for FPGS (UniProt Q05932), the log2 fold change is inactive: 0.027.

For the target GATA1 (UniProt P15976), the log2 fold change is inactive: 0.04.

For the target GBA2 (UniProt Q9HCG7), the log2 fold change was inactive: 0.

In the case of GDE1 (UniProt Q9NZC3), the log2 fold change was inactive: 0.005.

GART (UniProt C9JZG2): the log2 fold change is inactive: -0.043.

Turning to FOXL2 (UniProt P58012), the log2 fold change is inactive: 0.174.

As to GBP2 (UniProt P32456), the log2 fold change was inactive: -0.065.

Compound in a further assay: CCn1cc(-c2ccnc3[nH]c(-c4cccc(CN(C)C)c4)cc23)c(-c2ccc(NC(=O)N(C)C)cc2)n1
The description is as above. The gist of the method:
as §1
On to GAS6 isoform 1 (UniProt Q14393), for which the log2 fold change was inactive: -0.096.

For FZD1 (UniProt Q9UP38), the log2 fold change is inactive: -0.025.

In the case of FUT1 (UniProt P19526), the log2 fold change was inactive: -0.032.

With FUT11 (UniProt Q495W5), the log2 fold change was inactive: 0.118.

On to FSIP2 (UniProt Q5CZC0), for which the log2 fold change is inactive: -0.442.

Consider GCA (UniProt P28676), for which the log2 fold change was inactive: -0.139.

Regarding GABPB2 (UniProt Q8TAK5), the log2 fold change is inactive: 0.195.

On to GEMIN7 (UniProt Q9H840), for which the log2 fold change was inactive: -0.159.

As for FUT4 (UniProt P22083), the log2 fold change was inactive: -0.151.

For the target G3BP2 isoform 2 (UniProt Q9UN86), the log2 fold change is inactive: 0.156.

Regarding GADD45A (UniProt P24522), the log2 fold change is inactive: -0.032.

Turning to FZD5 (UniProt Q13467), the log2 fold change is inactive: -0.145.

For FRYL isoform 2 (UniProt O94915), the log2 fold change is inactive: 0.191.

Consider FZR1 isoform 2 (UniProt Q9UM11), for which the log2 fold change was inactive: 0.037.

For FOXO4 (UniProt P98177), the log2 fold change is inactive: 0.093.

For the target GATA1 (UniProt P15976), the log2 fold change was inactive: 0.121.

In the case of GBA2 (UniProt Q9HCG7), the log2 fold change is inactive: -0.076.

As to GDE1 (UniProt Q9NZC3), the log2 fold change was active: 1.04.

As to GART (UniProt C9JZG2), the log2 fold change was inactive: 0.135.

For GBP2 (UniProt P32456), the log2 fold change was inactive: -0.337.
